Earlier results, collected in patent publication US8617617B2, “Methods and kits for co-administration of nutritional supplements” (Everett Laboratories, Inc., priority 2002, dated 2013).
For at least one compound, name, drawing or mass did not settle the structure.

System: pregnant mothers
Settings: DHA supplementation during pregnancy

In the case of `CC/C=C\C/C=C\C/C=C\C/C=C\C/C=C\C/C=C\CCC(=O)O` [DHA, docosahexaenoic acid], the “increase in length of gestation” value is listed as “about six”.
